Measured values from US6710041B2, “Pyrrolo[2,1-B][3,1] benzothiazepines and their use for the preparation of medicaments with antipsychotic activity” (Sigma-Tau Industrie Farmaceutiche Riunite S.p.A., priority 2003, dated 2004).

Molecular target: α1-adrenergic receptor
Assay: Interaction with α1 receptors, [3H]-prazosin binding, rat cortex
Details: Table 1; mean and standard deviation; read-out: α1 Ki ± ds

Ki: 12 ± 2.5 nM
Compound: O=C(CCCN1CCC(O)(c2ccc(Cl)cc2)CC1)c1ccc(F)cc1 [Haloperidol, haloperidol, reference compound]
